The record followed here is publication PMC9390996.

No constants are given. Whether binding was seen depends on the method and setting. Binding seen in cells or lysates may run through a third protein. Some binding calls cover weakened binding; strength is not graded here. For part of these data: Sequences can lack the tags named with a protein.

Assay [1] concerns the target T1, RB1 (endogenous, SH-SY5Y neuroblastoma cells) (human (endogenous in SH-SY5Y)) (UniProt P06400).
T1 sequence: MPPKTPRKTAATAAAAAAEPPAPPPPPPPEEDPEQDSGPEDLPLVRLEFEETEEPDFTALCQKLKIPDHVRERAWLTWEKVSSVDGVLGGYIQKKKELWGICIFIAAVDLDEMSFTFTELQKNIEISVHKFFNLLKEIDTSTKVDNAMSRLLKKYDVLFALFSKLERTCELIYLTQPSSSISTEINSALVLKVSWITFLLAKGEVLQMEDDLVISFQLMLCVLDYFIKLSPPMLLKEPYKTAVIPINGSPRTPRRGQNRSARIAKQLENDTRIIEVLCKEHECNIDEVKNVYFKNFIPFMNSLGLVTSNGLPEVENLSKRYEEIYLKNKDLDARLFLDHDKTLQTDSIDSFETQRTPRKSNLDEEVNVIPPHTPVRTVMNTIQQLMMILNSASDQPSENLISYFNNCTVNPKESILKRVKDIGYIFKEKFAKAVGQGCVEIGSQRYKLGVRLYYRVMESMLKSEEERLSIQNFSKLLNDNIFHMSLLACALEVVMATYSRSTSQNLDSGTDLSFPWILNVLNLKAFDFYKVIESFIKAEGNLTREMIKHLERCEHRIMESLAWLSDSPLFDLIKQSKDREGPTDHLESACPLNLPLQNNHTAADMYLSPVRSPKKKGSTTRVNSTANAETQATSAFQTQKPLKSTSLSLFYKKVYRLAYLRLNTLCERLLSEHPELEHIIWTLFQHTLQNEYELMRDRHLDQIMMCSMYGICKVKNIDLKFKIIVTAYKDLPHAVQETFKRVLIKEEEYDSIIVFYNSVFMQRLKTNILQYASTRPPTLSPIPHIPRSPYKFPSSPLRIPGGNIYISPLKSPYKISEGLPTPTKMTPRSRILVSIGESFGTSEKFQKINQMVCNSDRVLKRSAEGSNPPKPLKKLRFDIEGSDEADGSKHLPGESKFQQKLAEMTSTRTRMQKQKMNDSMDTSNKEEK
The assay can be described thus: co-IP; endogenous proteins in RB1-WT SH-SY5Y cells; cells treated with dithiobis succinimidyl propionate, lysed in NP-40 buffer; immunoprecipitation for RB1, ESRRG or IgG control overnight at 4°C, protein G Dynabeads, Western blot. In general terms: Immunoblotting shows a protein as a band on a membrane.

Assay [2] has as its target T2, hemagglutinin (HA)-tagged RB1 (human) (UniProt P06400).
T2 sequence: T1 sequence
The assay can be described thus: co-IP; ectopically expressed HA-RB1 and V5-ESRRG (WT or MUT) in RB1-null C33A cells; cells treated with dithiobis succinimidyl propionate, lysed in NP-40 buffer; immunoprecipitation for HA or for V5, protein G Dynabeads, Western blot.

Assay [3] addresses T3, RB1 in RB1-WT HEK293 cells (human) (UniProt P06400).
T3 sequence: T1 sequence
The assay can be described thus: co-IP; RB1-WT HEK293 cells (express adenoviral E1A); fig. S10; cells treated with dithiobis succinimidyl propionate, lysed in NP-40 buffer.

B1: estrogen-related receptor gamma (ESRRG) (endogenous, SH-SY5Y neuroblastoma cells) (protein, UniProt P62508 1-458)
chain: MDSVELCLPESFSLHYEEELLCRMSNKDRHIDSSCSSFIKTEPSSPASLTDSVNHHSPGGSSDASGSYSSTMNGHQNGLDSPPLYPSAPILGGSGPVRKLYDDCSSTIVEDPQTKCEYMLNSMPKRLCLVCGDIASGYHYGVASCEACKAFFKRTIQGNIEYSCPATNECEITKRRRKSCQACRFMKCLKVGMLKEGVRLDRVRGGRQKYKRRIDAENSPYLNPQLVQPAKKPYNKIVSHLLVAEPEKIYAMPDPTVPDSDIKALTTLCDLADRELVVIIGWAKHIPGFSTLSLADQMSLLQSAWMEILILGVVYRSLSFEDELVYADDYIMDEDQSKLAGLLDLNNAILQLVKKYKSMKLEKEEFVTLKAIALANSDSMHIEDVEAVQKLQDVLHEALQDYEAGQHMEDPRRAGKMLMTLPLLRQTSTKAVQHFYNIKLEGKVPMHKLFLEMLEAKV
As for B1, the binding entry in assay [1] was “binds”.

B2: V5-tagged WT ESRRG (protein, UniProt P62508 1-458)
chain: B1 chain
Take B2: in assay [2], the binding result was “binds”.

B3: ESRRG in HEK293 cells (protein, UniProt P62508 1-458)
chain: B1 chain
As to B3, the binding result in assay [3] was “binds”.
